# Measured values published in paper PMC4076021 (ACS chemical biology, 2014).
# Test system: H460 cells
smiles,measurement,setting,value
O=C(CCCCCCC(=O)Nc1ccccc1)NO [SAHA],combination effect on inhibition of H460 cell proliferation (in words),,moderate antagonism
same,combination index (CI),"in combination with bizine, H460, 48 h, all ratios examined",> 1
